Our source for the logD and solubility values is ChEMBL document CHEMBL4033761 (ACS Med Chem Lett, 2017).

Each structure is given as a SMILES string.

Series [1] is described as follows: Distribution coefficient, log D of compound at pH 7.4. Particulars: octanol/water.
The nature of series [2]: Solubility of compound in DMSO.

In turn, `NS1(=O)=NC(=O)c2ccccc21` (configuration not stated) had a logD in series [1] of less than -1.3. Besides, the solubility in series [2] was greater than 1000 µM.

A word on the logD: it is lipophilicity at a set pH, counting ionised and neutral species. A high value points to a more lipophilic compound. By solubility is commonly meant the concentration that dissolves in the medium under given conditions.
